# Experimental data reported in PubChem BioAssay (NCATS).
# Inconclusive means that the source gave no clear call. Such entries were picked first, then a sample of the others. Potencies of inconclusive entries are doubtful fits and often do not repeat. Active and inactive are the calls of the source. Calls come from the whole dose curve; as a rule, active = well fitted cell-killing curve with a large enough effect; inconclusive = small, poorly fitted or top-dose-only effect, or effect the other way; inactive = no such curve, though single readings can be large or run the other way.
# Assay: Quantitative High-Throughput drug screen in 47 multiple myeloma cell lines against the NCATS MIPE library collection: OCIMY5_PLB cell viability assay (AID 1918988); note: nearly all actives have a fitted effect of over 65% in size
# Conditions: OCI-MY5 myeloma viability, ATP luminescence, 48 h; viability, % of control: at 45.8 µM (top of the series)
# Description: PI: Beverly A. Mock Ph.D.
# Laboratory of Cancer Biology and Genetics,
# Center for Cancer Research, National Cancer Institute,
# National Institute of Health, Bethesda, Maryland
# Drug resistance and disease progression are common in multiple myeloma (MM) patients, underscoring the need for new therapeutic combinations. […] We hypothesized that effective combinations would reduce MYC expression and enhance p16 activity. […] These preclinical data identify potentially useful drug combinations for evaluation in drug-resistant MM and reveal potential mechanisms of combined drug sensitivity.
# Described herein is the primary MIPE qHTS used to cherrypick compounds. Validated compounds were then further tested for potential synergistic activiy.
# [1] Peat TJ, Gaikwad SM, Dubois W, Gyabaah-Kessie N, Zhang S, Gorjifard S, Phyo Z, Andres M, Hughitt VK, Simpson RM, Miller MA, Girvin AT, Taylor A, Williams D, D'Antonio N, Zhang Y, Rajagopalan A, Flietner E, Wilson K, Zhang X, Shinn P, Klumpp-Thomas C, McKnight C, Itkin Z, Chen L, Kazandijian D, Zhang J, Michalowski AM, Simmons JK, Keats J, Thomas CJ, Mock BA. Drug combinations identified by high-throughput screening promote cell cycle transition and upregulate Smad pathways in myeloma. Cancer Lett. 2023 Aug 1;568:216284. doi: 10.1016/j.canlet.2023.216284. Epub 2023 Jun 24. PMID: 37356470; PMCID: PMC10408729.
# SEQUENCE No. (e.g., 1, 2, 3, etc.); […] (e.g., Cells, Incubation, Reagent, etc.); VALUE and DESCRIPTION.
# 1; Cells; 5 uL; white, solid bottom 1536-well Greiner assay plate.
# 2; Compounds; 23 nL; Kalypsis pin tool (Wako USA) equipped with a 1536-well pin head to transfer to the assay plates.
# 3; Incubation; 48 hours; 37C incubation.
# 4; Reagent;5uL; CellTiter Glo (Promega).
# 5; Detector; 425V; Luminescence; Viewlux PerkinElmer.
# NOTES (numbers refer to Sequence numbers above)
# 1. The cell-based screening methods employed in this study were like those previously published. Briefly, the corresponding myeloma cell lines were screened in 1,536-well plates with 500 cells, 5-uL per well for inhibition of cell viability (assessed by measuring ATP levels with CellTiterGlo).
# 2. NCATS MIPE 4.0 library of approved and investigational drugs were added using the Kalypsis pin tool. Wells treated with DMSO only for 100% viability and media only for 0% viability were used as controls.
# 3. The assay plates were covered and incubated for 48 hours in a 37C, 5% CO2 incubator with controlled humidity.
# 4. After 48 hours, CellTilter-GloTM luminescent substrate mix (Promega) reagent was added to the assay plate and plates we incubated for 5 min at room temperature.
# 5. Signal was measured as median relative luminescence units on a ViewLux (PerkinElmer) multiplate reader.
# [1] Heske CM, Davis MI, Baumgart JT, Wilson K, Gormally MV, Chen L, Zhang X, Ceribelli M, Duveau DY, Guha R, Ferrer M, Arnaldez FI, Ji J, Tran HL, Zhang Y, Mendoza A, Helman LJ, Thomas CJ. Matrix Screen Identifies Synergistic Combination of PARP Inhibitors and Nicotinamide Phosphoribosyltransferase (NAMPT) Inhibitors in Ewing Sarcoma. Clin Cancer Res. 2017 Dec 1;23(23):7301-7311. doi: 10.1158/1078-0432.CCR-17-1121. Epub 2017 Sep 12. PMID: 28899971; PMCID: PMC6636827.
# Potency is the fitted concentration of half-maximal effect.
SMILES,Potency,"viability, % of control"
NC(=O)c1ncn([C@@H]2O[C@H](CO)[C@@H](O)[C@@H]2O)c1N,inconclusive: 0.001 µM [cytotoxic],
Cc1cccc(C)c1OCC(=O)N[C@@H](Cc1ccccc1)[C@@H](O)C[C@H](Cc1ccccc1)NC(=O)[C@H](C(C)C)N1CCCNC1=O,,inactive: 48.3%
Clc1ccc(C(Cn2ccnc2)OCc2ccsc2Cl)c(Cl)c1 (stereo not given),active: 26.4 µM,
NC12CC3CC(CC(C3)C1)C2,active: 0.0026 µM,
Cn1c2cc(S(C)=O)sc2c2cnn(Cc3cccc(N)c3)c(=O)c21 (stereo not given),"inconclusive: 1.18 µM [cytotoxic, full curve, poor fit]",
CCCc1cc(=O)[nH]c(=S)[nH]1,,inactive: 163%
O=c1[nH]cnc2c1ncn2[C@H]1CC[C@@H](CO)O1,,inactive: 153%
Cc1ccn(-c2ccc(-c3ncco3)cc2)c(=O)c1-c1ccc2nc(N)ncc2c1,"inconclusive: 20.9 µM [cytotoxic, partial curve, poor fit]",
O=c1cc(O)c(Cl)c[nH]1,"inconclusive: 20.9 µM [cytotoxic, partial curve, poor fit]",
CN1C(=O)C[C@H](C(=O)N[C@@H](Cc2cnc[nH]2)C(=O)N2CCC[C@@H]2C(N)=O)NC1=O,"inconclusive: 14.8 µM [cytotoxic, partial curve, poor fit]",
N[C@@H](Cc1cc(I)c(Oc2cc(I)c(O)c(I)c2)c(I)c1)C(=O)O,"inconclusive: 8.33 µM [cytotoxic, full curve, poor fit]",
CC(COc1ccccc1)N(CCCl)Cc1ccccc1 (stereo not given),active: 26.4 µM,
C[C@@]1(C(=O)Nc2ccc(F)nc2)CCCN1c1nc(Nc2cc(C3CC3)[nH]n2)c2cccn2n1,active: 0.118 µM,
CN(CCOc1ccc(NS(C)(=O)=O)cc1)CCc1ccc(NS(C)(=O)=O)cc1,"inconclusive: 0.0019 µM [cytotoxic, full curve, poor fit]",
CC(C)NCC(O)COc1ccc(COCCOC(C)C)cc1 (stereo not given),"inconclusive: 0.0047 µM [cytotoxic, full curve, poor fit]",
Clc1ccc(C(Cn2ccnc2)OCc2c(Cl)cccc2Cl)c(Cl)c1 (stereo not given),"inconclusive: 0.0013 µM [cytotoxic, full curve, poor fit]",
O=C(Nc1cccc(Br)c1)c1cccc(S(=O)(=O)N2CCCCCC2)c1,active: 18.7 µM,
COCCCOc1cc(C[C@@H](C[C@H](N)[C@@H](O)C[C@H](C(=O)NCC(C)(C)C(N)=O)C(C)C)C(C)C)ccc1OC,,inactive: 134%
CS(=O)(=O)c1ccc(C2=C(c3ccccc3)C(=O)OC2)cc1,"inconclusive: 0.0066 µM [cytotoxic, full curve, poor fit]",
CCCCC[C@H](O)C=C[C@H]1[C@H](O)CC(=O)[C@H]1CC=CCCCC(=O)O,"inconclusive: 16.6 µM [cytotoxic, partial curve, poor fit]",

# A second format for part of the listing above:
SMILES	Potency	viability, % of control
O=c1[nH]cnc2c1ncn2[C@H]1CC[C@@H](CO)O1		inactive: 153%
CN1C(=O)C[C@H](C(=O)N[C@@H](Cc2cnc[nH]2)C(=O)N2CCC[C@@H]2C(N)=O)NC1=O	inconclusive: 14.8 µM [cytotoxic, partial curve, poor fit]	
CN(CCOc1ccc(NS(C)(=O)=O)cc1)CCc1ccc(NS(C)(=O)=O)cc1	inconclusive: 0.0019 µM [cytotoxic, full curve, poor fit]	

# Continued.

SMILES,Potency,"viability, % of control"
CCC(=O)N[C@H]1CC[C@H](C(=O)N(C)c2ccc(-c3nc4ccccc4o3)cc2)C1,"inconclusive: 6.62 µM [cytotoxic, partial curve, poor fit]",
Nc1nc2[nH]cc(CCc3ccc(C(=O)N[C@@H](CCC(=O)O)C(=O)O)cc3)c2c(=O)[nH]1,"inconclusive: 16.6 µM [cytotoxic, partial curve, poor fit]",
C[C@@H](CN1CC(=O)NC(=O)C1)N1CC(=O)NC(=O)C1,,inactive: 194%
COCCOC(=O)C1=C(C)NC2=C(C(=O)CC(c3ccccc3OC)C2)C1c1cccc(O)c1 (stereo not given),active: 8.33 µM,
CN1C(C(=O)Nc2ccccn2)=C(O)c2ccccc2S1(=O)=O,,inactive: 165%
O=c1ccn([C@@H]2O[C@H](CO)[C@H](O)[C@H]2O)c(=O)[nH]1,"inconclusive: 10.5 µM [cytotoxic, full curve, poor fit]",
CCCCCCCCCCCCCCCC(=O)OC[C@@H](NC(=O)C(Cl)Cl)[C@H](O)c1ccc([N+](=O)[O-])cc1,,inactive: 149%
Cc1cn([C@H]2C=C[C@@H](CO)O2)c(=O)[nH]c1=O,"inconclusive: 76.2 µM [cytotoxic, single point]",
Cc1noc(NS(=O)(=O)c2ccc(N)cc2)c1C,,inactive: 157%
CCC[C@H](N[C@@H](C)C(=O)N1[C@@H]2CCCC[C@H]2C[C@H]1C(=O)O)C(=O)OCC,"inconclusive: 11.8 µM [cytotoxic, full curve, poor fit]",
CN(C)CCOC(c1ccccc1)c1ccccc1,,inconclusive: 124% [cytotoxic]
CCOC(=O)C=C[C@H](C[C@@H]1CCNC1=O)NC(=O)[C@@H](CC(=O)[C@@H](NC(=O)c1cc(C)on1)C(C)C)Cc1ccc(F)cc1,,inactive: 197%
CCNc1cc(NC2CCC(O)CC2)nc(Nc2ccc3c(ccn3Cc3ccccc3)c2)n1 (stereo not given),"inconclusive: 23.5 µM [cytotoxic, partial curve, poor fit]",
CCn1c(C(=O)N(C2CC2)C2CC2)cc2c3c(ncn3C)c(Nc3cc(C)n(C)n3)nc21,"inconclusive: 14.8 µM [cytotoxic, partial curve, poor fit]",
CC[C@H]1OC(=O)[C@H](C)[C@@H](O[C@H]2C[C@@](C)(OC)[C@@H](O)[C@H](C)O2)[C@H](C)[C@@H](O[C@@H]2O[C@H](C)C[C@H](N(C)C)[C@H]2O)[C@](C)(O)C[C@H](C)C(=NOCOCCOC)[C@H](C)[C@@H](O)[C@]1(C)O,"inconclusive: 11.8 µM [cytotoxic, single point]",
CCc1nc(N)nc(N)c1-c1ccc(Cl)cc1,,inactive: 146%
OCCN(CCO)c1nc(N2CCCCC2)c2nc(N(CCO)CCO)nc(N3CCCCC3)c2n1,active: 23.5 µM,
CC(C)(C)[N+]([O-])=Cc1ccc(S(=O)(=O)O)cc1S(=O)(=O)O,,inactive: 188%
CCCCCCCCCC(=O)N[C@@H](Cc1c[nH]c2ccccc12)C(=O)N[C@H](CC(N)=O)C(=O)N[C@@H](CC(=O)O)C(=O)N[C@@H]1C(=O)NCC(=O)N[C@@H](CCCN)C(=O)N[C@@H](CC(=O)O)C(=O)N[C@H](C)C(=O)N[C@@H](CC(=O)O)C(=O)NCC(=O)N[C@H](CO)C(=O)N[C@@H]([C@@H](C)CC(=O)O)C(=O)N[C@@H](CC(=O)c2ccccc2N)C(=O)O[C@@H]1C,,inactive: 157%
CN1C2CCC1CC(OC(=O)C(CO)c1ccccc1)C2 (stereo not given),"inconclusive: 0.0093 µM [rising, full curve, poor fit]",
